In US8618169B2, “Derivatives of N-phenylanthranilic acid and 2-benzimidazolone as potassium channel and/or neuron activity modulators” (Ramot at Tel-Aviv University Ltd., priority 2002, dated 2013):

Test system: COX (Cyclooxygenase)
Assay: COX activity assay in C-26 cells (PGE2 radioimmunoassay)
Format: cell-based
Description: C-26 cells were plated on 24-well plates using RPMI medium. Different concentrations of the tested compound were added thereto and the cells were incubated for 30 minutes at 37° C. 30 μM exogenic arachidonic acid was then added and incubation was continued for 20 minutes (37° C.), so as to allow the cells to synthesize PGE2. Indomethacin was added thereafter (10 μM), to stop and completely block the activity. Then, the upper solution was removed into clean 24-wells. To the remained cells 100 μl NaOH (1M) were added to induce cytolysis, and the cells were left for later protein measurement. The solution removed to the new 24-well was used for a radioimmunoassay. The COX activity was estimated by calculating the ng PGE2/mg protein parameter.

SMILES | Hillslope
O=C(Cc1ccccc1Nc1c(Cl)cccc1Cl)OCCOCCO [Compound 7] | −2.873
Cc1cccc(Nc2ccccc2C(=O)NCCOCCO)c1C [Compound 5] | −0.4281
Cc1c(Cl)cccc1Nc1ccccc1C(=O)NCCOCCO [Compound 3] | −0.6206
